Measurements from patent US12577231B2, “Androgen receptor PROTACS” (GlaxoSmithKline Intellectual Property Development Limited, priority 2023, dated 2026).
Some entries share one result that the patent states for a list of compounds.

Molecular target: T1, Androgen Receptor dual T878A/L702H mutant protein (Homo sapiens, UniProt P10275, L702H/T878A)
T1 construct: host or cells: MDA-PCa-2b
T1 sequence (P10275 1-920 L702H/T878A): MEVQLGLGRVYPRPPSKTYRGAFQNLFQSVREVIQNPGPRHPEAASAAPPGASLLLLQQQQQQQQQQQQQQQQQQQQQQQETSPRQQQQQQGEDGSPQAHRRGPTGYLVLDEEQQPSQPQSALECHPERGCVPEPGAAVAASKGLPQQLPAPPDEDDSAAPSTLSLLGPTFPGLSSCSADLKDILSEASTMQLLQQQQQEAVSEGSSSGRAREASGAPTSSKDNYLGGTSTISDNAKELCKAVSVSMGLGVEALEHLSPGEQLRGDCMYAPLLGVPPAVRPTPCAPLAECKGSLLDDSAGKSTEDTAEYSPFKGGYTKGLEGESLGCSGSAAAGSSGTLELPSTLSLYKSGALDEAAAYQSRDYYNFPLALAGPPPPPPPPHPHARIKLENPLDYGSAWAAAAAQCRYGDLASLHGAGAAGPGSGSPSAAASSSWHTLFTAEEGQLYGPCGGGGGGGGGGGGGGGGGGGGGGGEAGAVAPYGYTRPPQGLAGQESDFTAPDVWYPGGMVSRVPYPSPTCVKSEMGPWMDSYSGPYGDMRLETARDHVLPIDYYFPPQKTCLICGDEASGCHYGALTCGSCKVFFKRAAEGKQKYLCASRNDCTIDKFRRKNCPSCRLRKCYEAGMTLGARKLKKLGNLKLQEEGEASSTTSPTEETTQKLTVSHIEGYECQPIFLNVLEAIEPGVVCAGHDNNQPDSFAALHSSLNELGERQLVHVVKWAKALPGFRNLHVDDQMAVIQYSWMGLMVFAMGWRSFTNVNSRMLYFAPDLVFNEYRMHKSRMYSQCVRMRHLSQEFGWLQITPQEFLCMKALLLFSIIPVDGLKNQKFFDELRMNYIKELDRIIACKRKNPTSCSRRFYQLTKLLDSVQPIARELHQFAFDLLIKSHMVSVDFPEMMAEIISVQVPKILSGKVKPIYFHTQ
Assay: Dual Mutant (T878A/L702H) Androgen Receptor Degradation Assay (HTRF, MDA-PCa-2b cells)
Type: cell-based
Settings: 18 h incubation
Procedure, shortened: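 PROTACs tested as 11-point, 3-fold dilutions on 10,000 cells for 18 h at 37 °C. Remaining AR read by HTRF (665/620 nm ratio) after lysis, normalised to DMSO-treated cells (0%) and cell-free medium (100%). Relative DC50 from 4-parameter fit inflection, absolute DC50 interpolated at 50% degradation; Dmax is maximum observed degradation.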

Compound	mean relative pDC50
CC1(C)[C@H](NC(=O)c2ccc(N3CCC(CN4CCC(n5ncc6c(N7CCC(=O)NC7=O)ccnc65)CC4)CC3)c(F)c2)C(C)(C)[C@H]1Oc1ccc(C#N)c2ncccc12 [Example 40, N-((1r,3r)-3-((8-Cyanoquinolin-5-yl)oxy)-2,2,4,4-tetramethylcyclobutyl)-4-(4-((4-(4-(2,4-dioxotetrahydropyrimidin-1(2H)-yl)-1H-pyrazolo[3,4-b]pyridin-1-yl)piperidin-1-yl)methyl)piperidin-1-yl)-3-fluorobenzamide]	≥ 6.0
CC1(C)[C@H](NC(=O)c2ccc(N3CCC4(CC3)CC(N3CCC(n5ncc6c(N7CCC(=O)NC7=O)cccc65)CC3)C4)c(F)c2)C(C)(C)[C@H]1Oc1ccc(C#N)c2ncccc12 [Example 49, N-((1r,3r)-3-((8-Cyanoquinolin-5-yl)oxy)-2,2,4,4-tetramethylcyclobutyl)-4-(2-(4-(4-(2,4-dioxotetrahydropyrimidin-1(2H)-yl)-1H-indazol-1-yl)piperidin-1-yl)-7-azaspiro[3.5]nonan-7-yl)-3-fluorobenzamide]	≥ 6.0
CC1(C)[C@H](NC(=O)c2ccc(N3CCC(CN4CCC(n5ccc6c(N7CCC(=O)NC7=O)c(F)ccc65)CC4)CC3)c(F)c2)C(C)(C)[C@H]1Oc1ccc(C#N)c2ncccc12 [Example 51, N-((1r,3r)-3-((8-Cyanoquinolin-5-yl)oxy)-2,2,4,4-tetramethylcyclobutyl)-4-(4-((4-(4-(2,4-dioxotetrahydropyrimidin-1(2H)-yl)-5-fluoro-1H-indol-1-yl)piperidin-1-yl)methyl)piperidin-1-yl)-3-fluorobenzamide]	≥ 6.0
